For the data set, the system named is peptide-specific IgE. The experiment in a line: ELISA of peptide-specific serum IgE. It counts as binding, human. As to conditions: patients vaccinated with non-allergic CypB91 (2 or 3 doses), ART475 (3, 9, 15 doses) or SART3109 (11, 17 doses).

This is an account of results in patent US20060035291A1, “Method of detecting cellular immunity and application thereof to drugs” (priority 2001, published 2006).

On to DYPSLSATDI [ART475], for which the “IgE to the peptide in serum after vaccination” value was “increased”.
